Legend:
[1] = system: P. falciparum Dd2 (chloroquine-resistant); format: cell-based, Plasmodium falciparum; conditions: resistance index = IC50 (Dd2)/IC50 (3D7)
Procedure: (§1) Firstly, to prepare the samples for in vitro assays, each compound was dissolved in DMSO (Sigma-Aldrich®, Merck, Darmstadt, Germany), obtaining a solution of 5 mM, from which two other solutions, at 100 μM and 10 μΜ were prepared through dilution with RPMI-1640 medium (Invitrogen™, Carlsbad, CA, USA), supplemented with AlbuMAXII (Invitrogen™, Carlsbad, CA, USA). […] These cultures were obtained through BEI Resources, NIAID, NIH (MR4, ATCC®, Manassas, VA, USA), contributed by Andrew M. Talman, Robert E. Sinden, David Walliker, and Didier Ménard. The parasites were cultivated with 5% hematocrit at 37 °C and an atmosphere enriched with 5% of CO2 [54].
(§2) In order to accomplish this, unsynchronized cultures of 3D7-GFP, Dd2, and MRA-1240 were incubated at 1.2% hematocrit and 1.0% parasitemia with serial three-fold dilutions of the compounds, ranging from 10,000 nM to 0.17 nM, in 96-well flat-bottom plates for 72 h at 37 °C and 5% CO2. Parasite growth was quantified by flow cytometry (CytoFLEX, Beckman Coulter Life Sciences, Indianapolis, IN, USA) using GFP detection in a 96-well plate reader (Fl-1 channel) for the 3D7-GFP strain. The others (Dd2 and MRA-1240) were stained with SYBR Green I (20×), which is also detected at 488 nm. Data analysis was performed with FlowJo v10 software (FlowJo LLC, Ashland, OR, USA), and the half-maximal inhibitory concentrations (IC50) were calculated using GraphPad Prism 5 (trial version), with mean IC50 values obtained from at least two independent experiments, each conducted in triplicate.
(§3) All statistical analyses and graphical representations were performed using the GraphPad Prism 8.0 software package. Dose–response curves were generated by fitting the data to a nonlinear regression model [log(inhibitor) vs. response—variable slope]. […] The IC50 values were obtained from the fitted curves. Each experiment was carried out in triplicate and repeated independently, and results were expressed as mean ± standard deviation.

[2] = system: P. falciparum MRA-1240 (artemisinin-resistant); format: cell-based, Plasmodium falciparum; conditions: resistance index = IC50 (MRA-1240)/IC50 (3D7)
Procedure: as §1, §2, §3

[3] = system: monkey kidney cells (Vero E6); assay: Cytotoxicity, MTT assay; format: cell-based; conditions: for SI 3D7-GFP: selectivity index = IC50 (Vero E6)/IC50 (3D7-GFP); for SI Dd2: selectivity index = IC50 (Vero E6)/IC50 (Dd2); for SI MRA-1240: selectivity index = IC50 (Vero E6)/IC50 (MRA-1240)
Procedure: In the following stages, to assess the selectivity of compounds against P. falciparum over mammalian cells, the cytotoxicity against monkey kidney cells (Vero E6) was determined through MTT assay after 72h of treatment. Also, the selectivity index (SI) of compounds was calculated by the ratio between a compound’s cytotoxicity against Vero E6 cells and its antiplasmodial activity (SI = Vero E6 IC50/P. falciparum IC50).
For this, monkey kidney cells (Vero E6) were seeded at a density of 5 × 10^3 cells/mL in 96-well plates and allowed to adhere for 6 h. Vero E6 cell line was obtained from the Cell Bank of Rio de Janeiro and cultured in DMEM media (Dulbecco’s Modified Eagle Medium) plus 10% inactivated fetal bovine serum (FBS) and 1% penicillin–streptomycin. Treatments were performed by adding 100 μL of medium solutions with test drugs, resulting in concentrations ranging from 12.5 to 100 µM (DMSO 1%, v/v). After 72 h of incubation at 37 °C and under 5% of CO2, the cultures were incubated with MTT at 0.5 mg/mL for 2 h. After this, the formazan crystals were dried in room temperature and dissolved in DMSO. Cell viability was determined by measuring the absorbance at 570 nm (Absorbance microplate reader EL800, BioTek, Winooski, VT, USA), and control wells containing DMSO at 1% were considered as 100% cell viability.

Structure (SMILES)	RI Dd2 [1]	RI MRA-1240 [2]	SI 3D7-GFP [3]	SI Dd2 [3]	SI MRA-1240 [3]
N#CC1=CC2(c3ccccc3Nc3ccccc32)N(/N=C/c2ccccc2)C1=O [AMTAC-01]	0.6	0.8	>47.3	>72.7	>60.2
COc1ccc(/C=N/N2C(=O)C(C#N)=CC23c2ccccc2Nc2ccccc23)cc1 [AMTAC-02]	1.0	1.3	>31.3	>32.0	>24.9
COc1cc(/C=N/N2C(=O)C(C#N)=CC23c2ccccc2Nc2ccccc23)cc(OC)c1OC [AMTAC-17]	1.0	1.2	>30.5	>30.4	>24.5
N#CC1=CC2(c3ccccc3Nc3ccccc32)N(/N=C/c2ccnc3ccccc23)C1=O [AMTAC-21, (E)-5′-oxo-1′-((quinolin-4-ylmethylene)amino)-1′,5′-dihydro-10H-spiro[acridine-9,2′-pyrrole]-4′-carbonitrile]	1.0	1.1	>26.4	>25.1	>24.6
N#CC1=CC2(c3ccccc3Nc3ccccc32)N(/N=C/c2c[nH]c3ccccc23)C1=O [AMTAC-22, (E)-1′-(((1H-indol-3-yl)methylene)amino)-5′-oxo-1′,5′-dihydro-10H-spiro[acridine-9,2′-pyrrole]-4′-carbonitrile]	0.8	1.0	>33.2	>42.7	>34.7
